{"source": "PubChem BioAssay AID504808, Drosophila RNAi Screening Center – 2011", "assay": "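Genes whose loss lifts activity of an E2F-responsive reporter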 (primary screen)", "cells": "Drosophila S2 cells", "reagents": "long dsRNA against Drosophila genes", "measurement": "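Firefly luciferase driven by E2F sites, normalised to Renilla luciferase on the same minimal promoter, measured by plate reader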", "direction": "E2F firefly: higher = more E2F reporter activity; Renilla normaliser: higher = more normaliser reporter signal", "call rule": "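Called active if the normalised E2F reporter went up by over 50%; the cutoff is arbitrary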", "note": "In all, the deposit lists about 21,000 reagents; this is an unselected part of those with a known target gene and a result. Of all reagents, 18 (0.084%) are marked active. 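Raw counts without plate normalisation, one of two replicates; the ratio scores behind the calls were not deposited.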 No sequences are given here. Not given: the amount of reagent, the time to read-out."}
{"gene": "NimA (Nimrod A)", "DRSC id": "DRSC01353", "E2F firefly, rep 1": 1.35e5, "Renilla normaliser, rep 1": 5302, "Outcome": "inactive"}
{"gene": "CG4866", "DRSC id": "DRSC06899", "E2F firefly, rep 1": 1.37e5, "Renilla normaliser, rep 1": 4988, "Outcome": "inactive"}
{"gene": "Obp73a (Odorant-binding protein 73a)", "DRSC id": "DRSC09907", "E2F firefly, rep 1": 1.53e5, "Renilla normaliser, rep 1": 7771, "Outcome": "inactive"}
{"gene": "Dph3 (Diphthamide biosynthesis 3)", "DRSC id": "DRSC14923", "E2F firefly, rep 1": 1.41e5, "Renilla normaliser, rep 1": 5598, "Outcome": "inactive"}
{"gene": "Or49b (Odorant receptor 49b)", "DRSC id": "DRSC07494", "E2F firefly, rep 1": 1.13e5, "Renilla normaliser, rep 1": 4407, "Outcome": "inactive"}
{"gene": "up (upheld)", "DRSC id": "DRSC20382", "E2F firefly, rep 1": 6916, "Renilla normaliser, rep 1": 800, "Outcome": "inactive"}
{"gene": "ND-MNLL (NADH dehydrogenase (ubiquinone) MNLL subunit)", "DRSC id": "DRSC18159", "E2F firefly, rep 1": 87092, "Renilla normaliser, rep 1": 4904, "Outcome": "inactive"}
{"gene": "Ice2 (Interacts with the C terminus of ELL 2)", "DRSC id": "DRSC14268", "E2F firefly, rep 1": 71944, "Renilla normaliser, rep 1": 5044, "Outcome": "inactive"}
{"gene": "dgt6 (dim gamma-tubulin 6)", "DRSC id": "DRSC14424", "E2F firefly, rep 1": 1896, "Renilla normaliser, rep 1": 988, "Outcome": "inactive"}
{"gene": "Cyp6a18 (Cytochrome P450 6a18)", "DRSC id": "DRSC16632", "E2F firefly, rep 1": 99067, "Renilla normaliser, rep 1": 5596, "Outcome": "inactive"}
{"gene": "Ziz (Zizimin)", "DRSC id": "DRSC02506", "E2F firefly, rep 1": 1.47e5, "Renilla normaliser, rep 1": 5006, "Outcome": "inactive"}
{"gene": "Ziz (Zizimin)", "DRSC id": "DRSC02976", "E2F firefly, rep 1": 1.58e5, "Renilla normaliser, rep 1": 5176, "Outcome": "inactive"}
{"gene": "CG31174", "DRSC id": "DRSC13518", "E2F firefly, rep 1": 79859, "Renilla normaliser, rep 1": 2279, "Outcome": "inactive"}
{"gene": "CG5707", "DRSC id": "DRSC08573", "E2F firefly, rep 1": 76432, "Renilla normaliser, rep 1": 3057, "Outcome": "inactive"}
{"gene": "CG42340", "DRSC id": "DRSC17458", "E2F firefly, rep 1": 83168, "Renilla normaliser, rep 1": 2592, "Outcome": "inactive"}
{"gene": "CG42340", "DRSC id": "DRSC17841", "E2F firefly, rep 1": 97127, "Renilla normaliser, rep 1": 4471, "Outcome": "inactive"}
{"gene": "CG42340", "DRSC id": "DRSC18305", "E2F firefly, rep 1": 98067, "Renilla normaliser, rep 1": 5146, "Outcome": "inactive"}
{"gene": "CG12995", "DRSC id": "DRSC19515", "E2F firefly, rep 1": 1.59e5, "Renilla normaliser, rep 1": 6343, "Outcome": "inactive"}

Single entries from the entries so far:
Ziz (Zizimin) [DRSC02976], Outcome = inactive
For “Outcome”, NimA (Nimrod A) [DRSC01353] reads inactive
Entry of CG42340 [DRSC17458] under “E2F firefly, rep 1”: 83168
CG12995 [DRSC19515], E2F firefly, rep 1 → 1.59e5
Value for CG42340 [DRSC18305] in “E2F firefly, rep 1”: 98067

Additional records follow.
{"gene": "CG13538", "DRSC id": "DRSC04180", "E2F firefly, rep 1": 1.01e5, "Renilla normaliser, rep 1": 4520, "Outcome": "inactive"}
{"gene": "CG17928", "DRSC id": "DRSC02644", "E2F firefly, rep 1": 1.02e5, "Renilla normaliser, rep 1": 3746, "Outcome": "inactive"}
{"gene": "dpr6 (defective proboscis extension response 6)", "DRSC id": "DRSC09005", "E2F firefly, rep 1": 79120, "Renilla normaliser, rep 1": 4422, "Outcome": "inactive"}
{"gene": "dpr6 (defective proboscis extension response 6)", "DRSC id": "DRSC10162", "E2F firefly, rep 1": 1.22e5, "Renilla normaliser, rep 1": 6795, "Outcome": "inactive"}
{"gene": "dpr6 (defective proboscis extension response 6)", "DRSC id": "DRSC10163", "E2F firefly, rep 1": 51555, "Renilla normaliser, rep 1": 3176, "Outcome": "inactive"}
{"gene": "CG11656", "DRSC id": "DRSC14338", "E2F firefly, rep 1": 73821, "Renilla normaliser, rep 1": 3784, "Outcome": "inactive"}
{"gene": "CG13085", "DRSC id": "DRSC02189", "E2F firefly, rep 1": 1.09e5, "Renilla normaliser, rep 1": 5148, "Outcome": "inactive"}
{"gene": "Bap111 (Brahma associated protein 111kD)", "DRSC id": "DRSC18419", "E2F firefly, rep 1": 64502, "Renilla normaliser, rep 1": 696, "Outcome": "inactive"}
{"gene": "Mst77F (Male-specific transcript 77F)", "DRSC id": "DRSC11871", "E2F firefly, rep 1": 1.31e5, "Renilla normaliser, rep 1": 7362, "Outcome": "inactive"}
{"gene": "nmo (nemo)", "DRSC id": "DRSC08902", "E2F firefly, rep 1": 1.35e5, "Renilla normaliser, rep 1": 5094, "Outcome": "inactive"}
{"gene": "nmo (nemo)", "DRSC id": "DRSC11377", "E2F firefly, rep 1": 80531, "Renilla normaliser, rep 1": 3652, "Outcome": "inactive"}
{"gene": "CG42747", "DRSC id": "DRSC10209", "E2F firefly, rep 1": 1.03e5, "Renilla normaliser, rep 1": 4062, "Outcome": "inactive"}
{"gene": "CG42747", "DRSC id": "DRSC10210", "E2F firefly, rep 1": 91616, "Renilla normaliser, rep 1": 3870, "Outcome": "inactive"}
{"gene": "CG13893", "DRSC id": "DRSC08363", "E2F firefly, rep 1": 90464, "Renilla normaliser, rep 1": 3818, "Outcome": "inactive"}
{"gene": "scpr-B (SCP-containing protein B)", "DRSC id": "DRSC15200", "E2F firefly, rep 1": 80213, "Renilla normaliser, rep 1": 3389, "Outcome": "inactive"}
{"gene": "CG34203", "DRSC id": "DRSC03855", "E2F firefly, rep 1": 1.13e5, "Renilla normaliser, rep 1": 3979, "Outcome": "inactive"}
{"gene": "Rift (Riboflavin transporter)", "DRSC id": "DRSC14330", "E2F firefly, rep 1": 1.21e5, "Renilla normaliser, rep 1": 5535, "Outcome": "inactive"}
{"gene": "CG8939", "DRSC id": "DRSC20127", "E2F firefly, rep 1": 7019, "Renilla normaliser, rep 1": 844, "Outcome": "inactive"}
